Structures can show the parent of a compound that is named as a salt. This is one part of the list. Hit calls seldom repeat between salt and free forms of one compound.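 Kinases were expressed as nanoluciferase fusions in K562 cells and luminescence was read every 4 h between 2 and 18 h as percent of control, DMSO set to 100% and a positive control to 0%. A time point counts as decreased when the signal drops significantly (2 sigma). The hit call is the authors' own, does not follow from the count of time points alone, and its rule is not shown.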
Experiments:
Experiment in all cases: kinase-Nluc reporter destabilization hit call (1 = scored as downregulated) (binary); higher = compound decreases kinase abundance
Conditions in all cases: K562; 2-18 h
[1] = biological target: IRAK3 (UniProt Q9Y616)
[2] = biological target: JAK1 (UniProt P23458)
[3] = biological target: LCK (UniProt P06239)
[4] = biological target: LIMK1 (UniProt P53667)
[5] = biological target: LIMK2 (UniProt P53671)
[6] = biological target: LMTK2 (UniProt Q8IWU2)
[7] = biological target: LYN (UniProt P07948)
[8] = biological target: MAP2K1 (UniProt Q02750)
[9] = biological target: MAP2K2 (UniProt P36507)
[10] = biological target: MAP4K2 (UniProt Q12851)
[11] = biological target: MAPK1 (UniProt P28482)
[12] = biological target: MAPK4 (UniProt P31152)
[13] = biological target: MAPKAPK2 (UniProt P49137)
[14] = biological target: MKNK1 (UniProt Q9BUB5)
[15] = biological target: NTRK2 (UniProt Q16620)
[16] = biological target: NTRK3 (UniProt Q16288)
[17] = biological target: PAK4 (UniProt O96013)
[18] = biological target: PBK (UniProt Q96KB5)
[19] = biological target: PDGFRB (UniProt P09619)
[20] = biological target: PDK1 (UniProt Q15118)

Chains of the proteins cited; added tags and fusions are not shown. Lines headed by an entry give the natural chain unless they say otherwise; changes in a name come on top.
UniProt Q8IWU2: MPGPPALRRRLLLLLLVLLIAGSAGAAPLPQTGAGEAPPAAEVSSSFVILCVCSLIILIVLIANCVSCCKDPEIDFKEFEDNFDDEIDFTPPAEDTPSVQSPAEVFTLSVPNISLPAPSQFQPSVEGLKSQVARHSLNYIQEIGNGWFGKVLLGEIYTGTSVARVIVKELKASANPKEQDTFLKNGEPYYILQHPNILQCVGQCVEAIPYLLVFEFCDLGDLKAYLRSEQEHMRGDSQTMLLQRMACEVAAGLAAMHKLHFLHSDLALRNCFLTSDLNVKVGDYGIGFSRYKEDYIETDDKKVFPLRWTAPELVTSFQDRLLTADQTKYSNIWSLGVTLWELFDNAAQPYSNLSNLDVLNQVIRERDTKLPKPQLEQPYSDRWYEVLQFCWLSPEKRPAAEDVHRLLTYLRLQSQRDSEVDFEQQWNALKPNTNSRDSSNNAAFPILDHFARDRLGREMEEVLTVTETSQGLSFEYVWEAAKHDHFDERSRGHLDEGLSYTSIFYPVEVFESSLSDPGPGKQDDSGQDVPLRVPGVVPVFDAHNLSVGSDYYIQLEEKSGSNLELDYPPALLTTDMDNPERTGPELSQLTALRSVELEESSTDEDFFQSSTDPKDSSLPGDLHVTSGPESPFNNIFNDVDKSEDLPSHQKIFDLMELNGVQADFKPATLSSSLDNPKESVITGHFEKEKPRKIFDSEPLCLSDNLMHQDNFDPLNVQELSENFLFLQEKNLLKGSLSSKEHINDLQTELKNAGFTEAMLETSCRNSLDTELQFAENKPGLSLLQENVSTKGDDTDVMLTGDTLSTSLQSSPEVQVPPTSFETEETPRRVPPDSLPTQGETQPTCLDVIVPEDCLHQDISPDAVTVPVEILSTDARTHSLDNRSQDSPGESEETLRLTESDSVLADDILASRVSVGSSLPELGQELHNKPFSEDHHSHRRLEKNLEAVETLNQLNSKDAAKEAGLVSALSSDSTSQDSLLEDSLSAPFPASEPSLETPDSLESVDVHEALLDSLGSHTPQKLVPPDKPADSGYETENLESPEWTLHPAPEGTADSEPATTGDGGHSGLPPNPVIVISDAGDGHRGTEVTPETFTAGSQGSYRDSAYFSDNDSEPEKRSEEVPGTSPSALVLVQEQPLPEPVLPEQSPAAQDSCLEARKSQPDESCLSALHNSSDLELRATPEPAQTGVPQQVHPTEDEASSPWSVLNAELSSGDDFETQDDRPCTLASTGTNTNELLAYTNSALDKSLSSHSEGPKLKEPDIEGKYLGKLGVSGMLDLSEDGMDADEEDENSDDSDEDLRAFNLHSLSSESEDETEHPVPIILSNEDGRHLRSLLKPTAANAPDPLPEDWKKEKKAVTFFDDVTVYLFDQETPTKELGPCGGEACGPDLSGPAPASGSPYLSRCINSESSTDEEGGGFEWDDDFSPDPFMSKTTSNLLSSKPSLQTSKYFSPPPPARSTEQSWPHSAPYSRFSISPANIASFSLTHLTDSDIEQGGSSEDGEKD
UniProt P07948: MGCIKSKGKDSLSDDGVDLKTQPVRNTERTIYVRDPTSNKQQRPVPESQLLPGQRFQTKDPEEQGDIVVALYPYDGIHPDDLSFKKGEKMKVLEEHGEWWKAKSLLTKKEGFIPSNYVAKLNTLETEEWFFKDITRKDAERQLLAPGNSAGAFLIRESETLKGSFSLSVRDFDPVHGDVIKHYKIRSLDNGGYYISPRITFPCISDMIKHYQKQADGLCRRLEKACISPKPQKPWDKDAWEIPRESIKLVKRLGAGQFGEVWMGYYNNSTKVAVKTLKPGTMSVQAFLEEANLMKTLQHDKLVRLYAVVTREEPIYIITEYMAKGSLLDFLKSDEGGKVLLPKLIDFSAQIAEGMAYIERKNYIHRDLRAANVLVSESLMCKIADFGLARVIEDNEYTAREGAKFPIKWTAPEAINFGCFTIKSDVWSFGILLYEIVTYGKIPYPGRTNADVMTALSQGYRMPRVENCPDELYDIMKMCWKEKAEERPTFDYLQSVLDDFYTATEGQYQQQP
UniProt P28482, whole entry: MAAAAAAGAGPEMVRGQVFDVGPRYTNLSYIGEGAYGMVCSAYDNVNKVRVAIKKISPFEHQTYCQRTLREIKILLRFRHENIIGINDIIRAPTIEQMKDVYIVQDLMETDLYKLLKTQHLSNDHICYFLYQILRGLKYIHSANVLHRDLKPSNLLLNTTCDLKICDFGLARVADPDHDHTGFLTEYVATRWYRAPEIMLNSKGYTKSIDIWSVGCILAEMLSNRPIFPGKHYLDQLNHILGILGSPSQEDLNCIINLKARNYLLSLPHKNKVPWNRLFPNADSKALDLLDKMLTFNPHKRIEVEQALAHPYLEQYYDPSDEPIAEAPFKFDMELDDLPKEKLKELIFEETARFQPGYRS
UniProt Q9BUB5: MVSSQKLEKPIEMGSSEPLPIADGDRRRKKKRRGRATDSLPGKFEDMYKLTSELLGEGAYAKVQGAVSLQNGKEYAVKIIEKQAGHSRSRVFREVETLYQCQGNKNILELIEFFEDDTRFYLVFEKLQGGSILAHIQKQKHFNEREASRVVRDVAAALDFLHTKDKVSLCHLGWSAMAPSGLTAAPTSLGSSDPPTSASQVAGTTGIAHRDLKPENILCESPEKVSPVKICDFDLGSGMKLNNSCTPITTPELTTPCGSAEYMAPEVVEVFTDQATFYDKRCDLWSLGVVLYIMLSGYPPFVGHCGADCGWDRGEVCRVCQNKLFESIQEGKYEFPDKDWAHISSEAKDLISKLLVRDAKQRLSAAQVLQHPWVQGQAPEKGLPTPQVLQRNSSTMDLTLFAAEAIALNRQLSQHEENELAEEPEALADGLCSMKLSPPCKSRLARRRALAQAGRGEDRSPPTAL
UniProt Q16620, whole entry, looked up: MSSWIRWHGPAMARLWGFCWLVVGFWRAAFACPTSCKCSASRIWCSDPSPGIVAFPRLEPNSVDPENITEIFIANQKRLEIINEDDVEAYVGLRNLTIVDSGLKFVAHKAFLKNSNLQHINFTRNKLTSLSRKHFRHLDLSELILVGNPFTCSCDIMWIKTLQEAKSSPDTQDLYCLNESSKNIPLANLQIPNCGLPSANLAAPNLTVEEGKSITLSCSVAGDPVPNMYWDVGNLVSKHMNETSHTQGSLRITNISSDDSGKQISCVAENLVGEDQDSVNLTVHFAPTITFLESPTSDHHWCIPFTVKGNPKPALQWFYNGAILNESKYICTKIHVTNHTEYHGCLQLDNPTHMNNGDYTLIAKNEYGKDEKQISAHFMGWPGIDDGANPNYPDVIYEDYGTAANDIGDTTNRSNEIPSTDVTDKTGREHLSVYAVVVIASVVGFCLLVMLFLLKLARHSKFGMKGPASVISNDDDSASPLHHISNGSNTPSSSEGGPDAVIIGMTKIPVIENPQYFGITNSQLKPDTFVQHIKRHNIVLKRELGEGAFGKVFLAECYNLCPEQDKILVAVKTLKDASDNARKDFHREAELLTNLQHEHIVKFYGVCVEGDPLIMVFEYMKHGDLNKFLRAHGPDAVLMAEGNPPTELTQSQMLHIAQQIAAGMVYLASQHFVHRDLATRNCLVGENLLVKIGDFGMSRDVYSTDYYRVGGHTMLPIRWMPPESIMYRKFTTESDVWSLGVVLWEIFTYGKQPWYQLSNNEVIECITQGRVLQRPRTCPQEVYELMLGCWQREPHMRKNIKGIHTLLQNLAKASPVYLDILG
UniProt Q16288, whole entry, looked up: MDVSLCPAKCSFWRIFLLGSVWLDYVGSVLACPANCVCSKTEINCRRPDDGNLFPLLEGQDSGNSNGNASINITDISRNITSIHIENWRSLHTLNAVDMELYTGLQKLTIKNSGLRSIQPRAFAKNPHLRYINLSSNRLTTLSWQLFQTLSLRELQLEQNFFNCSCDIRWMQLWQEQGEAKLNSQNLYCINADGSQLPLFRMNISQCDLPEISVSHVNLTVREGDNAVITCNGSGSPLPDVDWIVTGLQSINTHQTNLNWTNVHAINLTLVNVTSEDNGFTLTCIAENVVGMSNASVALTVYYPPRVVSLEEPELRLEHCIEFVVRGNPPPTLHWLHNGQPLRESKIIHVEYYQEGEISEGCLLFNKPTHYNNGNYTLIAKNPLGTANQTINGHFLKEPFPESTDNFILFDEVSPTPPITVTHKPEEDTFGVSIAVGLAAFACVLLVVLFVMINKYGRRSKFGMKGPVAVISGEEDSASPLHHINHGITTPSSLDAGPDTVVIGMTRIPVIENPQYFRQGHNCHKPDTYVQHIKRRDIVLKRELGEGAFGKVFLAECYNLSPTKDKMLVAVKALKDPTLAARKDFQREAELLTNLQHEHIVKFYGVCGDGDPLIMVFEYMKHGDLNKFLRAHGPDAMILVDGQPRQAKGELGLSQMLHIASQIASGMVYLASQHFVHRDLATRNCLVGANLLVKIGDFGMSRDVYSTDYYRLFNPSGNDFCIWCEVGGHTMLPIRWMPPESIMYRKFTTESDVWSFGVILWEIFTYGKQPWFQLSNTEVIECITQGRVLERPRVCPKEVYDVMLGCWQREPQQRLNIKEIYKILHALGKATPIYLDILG
UniProt Q96KB5: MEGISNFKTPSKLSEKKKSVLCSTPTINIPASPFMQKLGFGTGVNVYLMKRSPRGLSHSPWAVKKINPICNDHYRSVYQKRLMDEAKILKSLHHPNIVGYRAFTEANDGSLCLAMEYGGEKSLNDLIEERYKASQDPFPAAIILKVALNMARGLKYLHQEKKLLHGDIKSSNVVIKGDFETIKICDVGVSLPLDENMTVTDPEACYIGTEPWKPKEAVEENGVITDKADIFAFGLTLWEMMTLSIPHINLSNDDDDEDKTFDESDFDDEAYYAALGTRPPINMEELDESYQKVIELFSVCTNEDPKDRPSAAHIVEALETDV
UniProt P09619, whole entry: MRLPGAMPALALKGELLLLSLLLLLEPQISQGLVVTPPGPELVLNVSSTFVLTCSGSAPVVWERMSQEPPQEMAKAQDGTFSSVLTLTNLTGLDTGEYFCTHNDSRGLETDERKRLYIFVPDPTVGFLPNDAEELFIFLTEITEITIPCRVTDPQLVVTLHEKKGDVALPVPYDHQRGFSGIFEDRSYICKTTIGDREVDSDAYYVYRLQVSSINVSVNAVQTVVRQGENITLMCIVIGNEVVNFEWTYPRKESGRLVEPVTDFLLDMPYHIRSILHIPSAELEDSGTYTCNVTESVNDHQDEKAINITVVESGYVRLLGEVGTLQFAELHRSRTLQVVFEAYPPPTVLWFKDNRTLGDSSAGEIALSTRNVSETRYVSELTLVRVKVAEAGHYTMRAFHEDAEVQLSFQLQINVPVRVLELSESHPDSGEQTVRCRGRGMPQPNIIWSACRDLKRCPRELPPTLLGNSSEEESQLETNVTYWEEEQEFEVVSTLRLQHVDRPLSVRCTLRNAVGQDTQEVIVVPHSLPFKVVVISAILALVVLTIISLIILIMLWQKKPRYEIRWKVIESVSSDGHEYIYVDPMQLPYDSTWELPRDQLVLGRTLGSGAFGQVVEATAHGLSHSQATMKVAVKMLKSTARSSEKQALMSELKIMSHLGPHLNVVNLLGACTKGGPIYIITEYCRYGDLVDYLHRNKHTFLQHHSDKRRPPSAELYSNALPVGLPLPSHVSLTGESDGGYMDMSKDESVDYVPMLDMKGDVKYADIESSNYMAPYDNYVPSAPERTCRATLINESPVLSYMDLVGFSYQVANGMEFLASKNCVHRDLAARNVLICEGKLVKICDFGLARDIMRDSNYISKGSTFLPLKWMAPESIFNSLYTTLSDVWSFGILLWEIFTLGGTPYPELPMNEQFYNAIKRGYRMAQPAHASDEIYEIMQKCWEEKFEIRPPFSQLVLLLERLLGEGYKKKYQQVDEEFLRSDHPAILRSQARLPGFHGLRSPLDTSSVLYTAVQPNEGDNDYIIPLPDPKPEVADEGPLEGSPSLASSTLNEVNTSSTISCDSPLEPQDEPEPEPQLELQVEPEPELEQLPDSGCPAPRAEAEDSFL
UniProt Q15118, whole entry, looked up: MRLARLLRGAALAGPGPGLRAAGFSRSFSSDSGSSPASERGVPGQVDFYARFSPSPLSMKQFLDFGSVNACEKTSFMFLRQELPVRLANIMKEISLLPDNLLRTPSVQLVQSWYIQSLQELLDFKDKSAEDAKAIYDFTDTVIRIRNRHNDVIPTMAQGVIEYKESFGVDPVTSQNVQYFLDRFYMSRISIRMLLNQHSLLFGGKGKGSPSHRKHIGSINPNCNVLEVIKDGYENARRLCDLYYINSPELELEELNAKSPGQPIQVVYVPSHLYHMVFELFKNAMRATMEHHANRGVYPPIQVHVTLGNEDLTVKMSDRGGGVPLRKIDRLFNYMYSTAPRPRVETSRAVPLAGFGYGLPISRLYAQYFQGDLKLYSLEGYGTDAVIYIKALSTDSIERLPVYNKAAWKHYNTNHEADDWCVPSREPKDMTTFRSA

Measured: kinase-Nluc reporter destabilization hit call

Cc1ccccc1-c1c2nccc(-c3ccc(F)cc3F)c2cc[n+]1[O-] (10 µM)
inactive: [1] 0 | [2] 0 | [3] 0 | [4] 0 | [5] 0 | [6] 0 | [7] 0 | [8] 0 | [9] 0 | [10] 0 | [11] 0 | [12] 0 | [13] 0 | [14] 0 | [15] 0 | [16] 0 | [17] 0 | [18] 0 | [19] 0 | [20] 0

Cc1ccc(C(=O)Nc2ccc(Oc3cc4cnn(C)c4cc3-c3cn[nH]c3)c(F)c2)c(=O)n1-c1ccc(F)cc1 [Merestinib] (2.5 µM)
active: [4] 1
inactive: [1] 0 | [2] 0 | [3] 0 | [5] 0 | [6] 0 | [7] 0 | [8] 0 | [9] 0 | [10] 0 | [11] 0 | [12] 0 | [13] 0 | [14] 0 | [15] 0 | [16] 0 | [17] 0 | [18] 0 | [19] 0 | [20] 0

C=CC(=O)Nc1cccc(Nc2nc(Nc3ccc(NC4CN(CCF)C4)cc3OC)ncc2C(F)(F)F)c1 (2.5 µM)
inactive: [1] 0 | [2] 0 | [3] 0 | [4] 0 | [5] 0 | [6] 0 | [7] 0 | [8] 0 | [9] 0 | [10] 0 | [11] 0 | [12] 0 | [13] 0 | [14] 0 | [15] 0 | [16] 0 | [17] 0 | [18] 0 | [19] 0 | [20] 0

Cc1c(-c2c(F)cc(C(N)=O)c3[nH]c4c(c23)CC[C@H](C(C)(C)O)C4)cccc1-n1c(=O)c2cccc(F)c2n(C)c1=O (2.5 µM)
inactive: [1] 0 | [2] 0 | [3] 0 | [4] 0 | [5] 0 | [6] 0 | [7] 0 | [8] 0 | [9] 0 | [10] 0 | [11] 0 | [12] 0 | [13] 0 | [14] 0 | [15] 0 | [16] 0 | [17] 0 | [18] 0 | [19] 0 | [20] 0

c1ccc(-c2[nH]ncc2-c2ccnc3ccccc23)nc1 (10 µM)
inactive: [1] 0 | [2] 0 | [3] 0 | [4] 0 | [5] 0 | [6] 0 | [7] 0 | [8] 0 | [9] 0 | [10] 0 | [11] 0 | [12] 0 | [13] 0 | [14] 0 | [15] 0 | [16] 0 | [17] 0 | [18] 0 | [19] 0 | [20] 0

COc1cc(OC2CCN(C)CC2)ccc1Nc1ncc2c(n1)n(C1CCCC1)c(=O)n2C (10 µM)
inactive: [1] 0 | [2] 0 | [3] 0 | [4] 0 | [5] 0 | [6] 0 | [7] 0 | [8] 0 | [9] 0 | [10] 0 | [11] 0 | [12] 0 | [13] 0 | [14] 0 | [15] 0 | [16] 0 | [17] 0 | [18] 0 | [19] 0 | [20] 0

Cc1[nH]c(/C=C2\C(=O)Nc3ccccc32)c(C)c1CCC(=O)O [(Z)-Orantinib] (10 µM)
inactive: [1] 0 | [2] 0 | [3] 0 | [4] 0 | [5] 0 | [6] 0 | [7] 0 | [8] 0 | [9] 0 | [10] 0 | [11] 0 | [12] 0 | [13] 0 | [14] 0 | [15] 0 | [16] 0 | [17] 0 | [18] 0 | [19] 0 | [20] 0

O=Nc1c(-c2c(O)[nH]c3ccc(F)cc23)[nH]c2ccccc12 [5'-Fluoroindirubinoxime] (10 µM)
inactive: [1] 0 | [2] 0 | [3] 0 | [4] 0 | [5] 0 | [6] 0 | [7] 0 | [8] 0 | [9] 0 | [10] 0 | [11] 0 | [12] 0 | [13] 0 | [14] 0 | [15] 0 | [16] 0 | [17] 0 | [18] 0 | [19] 0 | [20] 0

C[C@@H]1COCCN1c1cc(C2([S@@](C)(=N)=O)CC2)nc(-c2ccnc3[nH]ccc23)n1 [(S)-Ceralasertib] (10 µM)
inactive: [1] 0 | [2] 0 | [3] 0 | [4] 0 | [5] 0 | [6] 0 | [7] 0 | [8] 0 | [9] 0 | [10] 0 | [11] 0 | [12] 0 | [13] 0 | [14] 0 | [15] 0 | [16] 0 | [17] 0 | [18] 0 | [19] 0 | [20] 0

C[C@@H](c1ccc(F)cc1)n1nnc2cnc3ccc(-c4ccc5ocnc5c4)cc3c21 (10 µM)
inactive: [1] 0 | [2] 0 | [3] 0 | [4] 0 | [5] 0 | [6] 0 | [7] 0 | [8] 0 | [9] 0 | [10] 0 | [11] 0 | [12] 0 | [13] 0 | [14] 0 | [15] 0 | [16] 0 | [17] 0 | [18] 0 | [19] 0 | [20] 0

O=c1cc(CN2CCOCC2)occ1OCCCCCSc1ccnc2cc(C(F)(F)F)ccc12 (10 µM)
inactive: [1] 0 | [2] 0 | [3] 0 | [4] 0 | [5] 0 | [6] 0 | [7] 0 | [8] 0 | [9] 0 | [10] 0 | [11] 0 | [12] 0 | [13] 0 | [14] 0 | [15] 0 | [16] 0 | [17] 0 | [18] 0 | [19] 0 | [20] 0

C=CC(=O)Nc1cc(Nc2ncc(Cl)c(-c3c[nH]c4ccccc34)n2)c(OC)cc1N(C)CCN(C)C [Mutant EGFR inhibitor] (2.5 µM)
inactive: [1] 0 | [2] 0 | [3] 0 | [4] 0 | [5] 0 | [6] 0 | [7] 0 | [8] 0 | [9] 0 | [10] 0 | [11] 0 | [12] 0 | [13] 0 | [14] 0 | [15] 0 | [16] 0 | [17] 0 | [18] 0 | [19] 0 | [20] 0

Cc1[nH]c(/C=C2\C(=O)Nc3ccc(F)cc32)c(C)c1C(=O)N[C@H]1CCN(C(=O)N(C)C)C1 [Vorolanib] (10 µM)
inactive: [1] 0 | [2] 0 | [3] 0 | [4] 0 | [5] 0 | [6] 0 | [7] 0 | [8] 0 | [9] 0 | [10] 0 | [11] 0 | [12] 0 | [13] 0 | [14] 0 | [15] 0 | [16] 0 | [17] 0 | [18] 0 | [19] 0 | [20] 0

CC#CC(=O)N1CC[C@@H](n2c(=O)n(-c3ccc(Oc4ccccc4)cc3)c3c(N)ncnc32)C1 [Tirabrutinib] (10 µM)
inactive: [1] 0 | [2] 0 | [3] 0 | [4] 0 | [5] 0 | [6] 0 | [7] 0 | [8] 0 | [9] 0 | [10] 0 | [11] 0 | [12] 0 | [13] 0 | [14] 0 | [15] 0 | [16] 0 | [17] 0 | [18] 0 | [19] 0 | [20] 0

CCc1cc2c(cc1N1CCC(N3CCOCC3)CC1)C(C)(C)c1[nH]c3cc(C#N)ccc3c1C2=O [Alectinib (Hydrochloride)] (2 µM)
inactive: [1] 0 | [2] 0 | [3] 0 | [4] 0 | [5] 0 | [6] 0 | [7] 0 | [8] 0 | [9] 0 | [10] 0 | [11] 0 | [12] 0 | [13] 0 | [14] 0 | [15] 0 | [16] 0 | [17] 0 | [18] 0 | [19] 0 | [20] 0

2 neighbouring entries from above:
Cc1[nH]c(/C=C2\C(=O)Nc3ccc(F)cc32)c(C)c1C(=O)N[C@H]1CCN(C(=O)N(C)C)C1 [Vorolanib] (10 µM)
inactive: [1] 0 | [2] 0 | [3] 0 | [4] 0 | [5] 0 | [6] 0 | [7] 0 | [8] 0 | [9] 0 | [10] 0 | [11] 0 | [12] 0 | [13] 0 | [14] 0 | [15] 0 | [16] 0 | [17] 0 | [18] 0 | [19] 0 | [20] 0

CC#CC(=O)N1CC[C@@H](n2c(=O)n(-c3ccc(Oc4ccccc4)cc3)c3c(N)ncnc32)C1 [Tirabrutinib] (10 µM)
inactive: [1] 0 | [2] 0 | [3] 0 | [4] 0 | [5] 0 | [6] 0 | [7] 0 | [8] 0 | [9] 0 | [10] 0 | [11] 0 | [12] 0 | [13] 0 | [14] 0 | [15] 0 | [16] 0 | [17] 0 | [18] 0 | [19] 0 | [20] 0

Additional records

Nc1ncnc2c1c(-c1ccc(Oc3ccccc3)cc1)nn2C1CCCC1 (2.5 µM)
inactive: [1] 0 | [2] 0 | [3] 0 | [4] 0 | [5] 0 | [6] 0 | [7] 0 | [8] 0 | [9] 0 | [10] 0 | [11] 0 | [12] 0 | [13] 0 | [14] 0 | [15] 0 | [16] 0 | [17] 0 | [18] 0 | [19] 0 | [20] 0

Nc1ncnc2c1c(-c1cccc(OCc3ccccc3)c1)cn2C1CC(CN2CCC2)C1 (stereo not given) (2.5 µM)
inactive: [1] 0 | [2] 0 | [3] 0 | [4] 0 | [5] 0 | [6] 0 | [7] 0 | [8] 0 | [9] 0 | [10] 0 | [11] 0 | [12] 0 | [13] 0 | [14] 0 | [15] 0 | [16] 0 | [17] 0 | [18] 0 | [19] 0 | [20] 0

Cn1cc(-c2ccc3nnc(Sc4ccc5ncccc5c4)n3n2)cn1 (10 µM)
inactive: [1] 0 | [2] 0 | [3] 0 | [4] 0 | [5] 0 | [6] 0 | [7] 0 | [8] 0 | [9] 0 | [10] 0 | [11] 0 | [12] 0 | [13] 0 | [14] 0 | [15] 0 | [16] 0 | [17] 0 | [18] 0 | [19] 0 | [20] 0

Reference: the supplement of paper PMC12823440, “Inhibitors supercharge kinase turnover through native proteolytic circuits” (Nature, 2025)
